According to PubChem BioAssay AID493014 (National Center for Advancing Translational Sciences (NCATS), 2011):
Some of the results follow. These are further read-outs of the screen, such as a control signal, another cell line or another target. No call is given for them. Compounds called inactive in the main read-out are mostly missing here. Words in brackets tell the shape of the fitted curve; partial curves, single points and poor fits give uncertain potencies.

Assay: qHTS Assay to Find Inhibitors of Chronic Active B-Cell Receptor Signaling
Conditions: ABC-DLBCL IkBa-CBG/CBR reporter, luminescence ratio (green luciferase fused to IkBa over red control in TMD8 lymphoma cells), 4 h
In short: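 Concentration-response series (up to 46 uM) were applied to TMD8 dual-reporter cells for 4 h at 37C with doxycycline. Green/red ratio, after filter-overlap correction, defined %Activity; red signal alone was normalised to basal cells and zero luminescence.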

[1] = measured here: CBR red luminescence, cell number
[2] = measured here: IkBa-CBG green luminescence

COC(C(=O)Nc1ccnn1C1CCN(Cc2ccccn2)CC1)c1ccccc1 (stereo unspecified)
AC50 [1]: 1 µM [falling, partial curve]

CC(C)Sc1nc(SCC(=O)O)c2c3c(sc2n1)COC(C)(C)C3
AC50 [1]: 1.26 µM [falling, full curve, poor fit]

Cc1cc(C(=O)N[C@H](c2ccccc2)[C@@]2(C)C[C@@H]2[C@@H](C)C(=O)Nc2ccc3ccccc3c2)n(C)n1
AC50 [1]: 2.06 µM [rising, partial curve, poor fit]

CC(=O)OCC(=O)[C@@]12OC(C)(C)O[C@@H]1C[C@H]1[C@@H]3C[C@H](F)C4=CC(=O)C=C[C@]4(C)[C@@]3(F)[C@@H](O)C[C@@]12C
AC50 [2]: 0.103 µM [falling, partial curve, poor fit]

N=c1c2c(-c3ccccc3)c(-c3ccccc3)n(Cc3ccco3)c2ncn1Cc1ccccc1
AC50 [1]: 23.1 µM [falling, partial curve, poor fit]

COc1ccc(/C=C\c2cc(OC)c(OC)cc2CC[N+](C)(C)C)cc1OC
AC50 [1]: 35.5 µM [rising, single point]

COC(=O)C1=CO[C@@H](C)[C@H]2CN3CCc4c([nH]c5ccccc45)[C@@H]3C[C@H]12
AC50 [1]: 25.9 µM [falling, single point]

Cc1c(C)n(C(=O)CSc2nccn2C)c2ccccc12
AC50 [1]: 17.8 µM [falling, single point]

Cc1cccc(C(=O)N2c3ccccc3C(=O)OC2c2ccc3c(c2)OCO3)c1 (stereo unspecified)
AC50 [1]: 3.55 µM [falling, full curve]

Cc1ccc(/C=C/C(=O)OCC(=O)N2CC(=O)Nc3ccccc32)o1
AC50 [1]: 17.8 µM [rising, partial curve, poor fit]

O=C(N/N=C/c1c[nH]c2ccc(Br)cc12)c1ccn(Cc2ccc(Cl)cc2)n1
AC50 [1]: 22.4 µM [falling, single point]

Cc1ccccc1N1CC(O)(c2ccccc2)[N+]2=C1SCC2 (stereo unspecified)
AC50 [1]: 25.9 µM [falling, single point]

COCCn1c(SCC(=O)Nc2ccc(NC(=O)c3ccco3)c(OC)c2)nc2ccccc2c1=O
AC50 [1]: 25.9 µM [rising, partial curve, poor fit]

O=C(CC1NCCc2ccccc21)Nc1ccccc1Cl (stereo unspecified)
AC50 [1]: 35.5 µM [falling, single point]

Cc1ccc(N(C(=O)Cn2nnc3ccccc32)C(C(=O)NCc2ccco2)c2cccnc2)cc1 (stereo unspecified)
AC50 [1]: 17.8 µM [rising, single point]

Cc1ccc(Nc2nnc(-c3ccc4c(c3)OCO4)o2)c(C)c1
AC50 [1]: 7.94 µM [falling, partial curve]

COCCCNC(=O)Nc1ccc(F)cc1F
AC50 [1]: 6.51 µM [rising, single point]

CC(C)n1ncc2c(C(=O)NCC(=O)Nc3ccccc3Br)cc(C3CC3)nc21
AC50 [1]: 29.1 µM [falling, single point]

CC(C)C(c1nnnn1Cc1ccc(F)cc1)N1CCN(C2CCCCC2)CC1 (stereo unspecified)
AC50 [1]: 3.98 µM [falling, full curve, poor fit]

Cc1ccc(-n2c(C)cc(/C=N/Nc3ccc([N+](=O)[O-])cn3)c2C)cc1
AC50 [1]: 6.31 µM [rising, full curve, poor fit]

O=C(Nc1ccc(N2CCCCC2)c(Cl)c1)c1ncn[nH]1
AC50 [1]: 1.41 µM [rising, full curve]

NC(=O)N1CCN(C(=O)c2ccco2)CC1
AC50 [1]: 0.146 µM [rising, full curve, poor fit]

O=C(Nc1ccc(S(=O)(=O)N2CCOCC2)cc1)c1cc(-c2cc(Cl)ccc2O)n[nH]1
AC50 [1]: 25.1 µM [falling, single point]

CC1CCC(NC(=O)c2ccc(NC(=O)CC3SC(N4CCCC4)=NC3=O)cc2)CC1 (stereo unspecified)
AC50 [1]: 5.8 µM [falling, full curve]

O=C(CCc1ccccc1)n1nc(-c2ccco2)nc1SCc1ccccc1
AC50 [1]: 0.411 µM [rising, full curve]

COc1ccccc1C(=O)N1CCN(c2nc3cc(C)c(C)cc3cc2C#N)CC1
AC50 [1]: 20.6 µM [falling, single point]

O=C(Nc1nc2ccccc2s1)NC1CCCCC1
AC50 [1]: 28.2 µM [falling, partial curve, poor fit]

COc1ccc(Cl)cc1NC(=O)COC(=O)CNC(=O)C1CCCCC1
AC50 [1]: 23.1 µM [rising, single point]

CCNC(=O)NC(=O)COc1ccccc1C#N
AC50 [1]: 15.8 µM [falling, single point]

CCN(CC)C(=O)CSc1ccccc1N
AC50 [1]: 29.1 µM [rising, single point]

CC(=O)N(/N=C/c1ccc(C)cc1)c1nc(CCl)cs1
AC50 [1]: 20 µM [rising, single point]

CCCNC(=O)N1CCN(C(=O)NCCC)CC1
AC50 [1]: 0.366 µM [rising, full curve, poor fit]

Oc1[nH]c(N=C2N=c3ccccc3=N2)c2ccccc12
AC50 [1]: 17.8 µM [falling, partial curve, poor fit] | AC50 [2]: 1.12 µM [falling, full curve]

C=CCC[C@H](Cc1ccc(F)cc1)C(=O)OC[C@@H](NC(=O)[C@@H](CC=C)CC(=O)N[C@H](CO)Cc1ccccc1)C(C)(C)C
AC50 [1]: 23.1 µM [falling, single point]

Fc1ccccc1CSc1nc2ncc(Br)cc2[nH]1
AC50 [1]: 1.03 µM [falling, full curve, poor fit]

CCOc1ccc(N(CC(=O)Nc2ccccc2C)S(=O)(=O)c2c(C)noc2C)cc1
AC50 [1]: 2.82 µM [rising, partial curve, poor fit] | AC50 [2]: 7.94 µM [falling, partial curve]

O=C(COC(=O)Cc1ccsc1)NCC12CC3CC(CC(C3)C1)C2
AC50 [1]: 0.146 µM [rising, full curve, poor fit]

COCCn1c(SCC(=O)Nc2ccc3c(c2)OCCO3)nnc1-c1c[nH]c2ccccc12
AC50 [1]: 3.55 µM [rising, single point]

Cc1noc(C)c1S(=O)(=O)N(C)C[C@H]1Oc2ccc(NS(=O)(=O)c3cn(C)cn3)cc2C(=O)N([C@H](C)CO)C[C@@H]1C
AC50 [1]: 4.61 µM [rising, single point]
